Assay results reported in article PMC12645055.
Results are given in words; binding and its absence hold for the method and conditions named. Binding seen in cells or lysates may run through a third protein. Some results given as binding are weak or reduced against the parent protein; the word gives no strength.

Sequences of proteins named here, by UniProt entry; tags and fusion partners are left off.
UniProt P50552: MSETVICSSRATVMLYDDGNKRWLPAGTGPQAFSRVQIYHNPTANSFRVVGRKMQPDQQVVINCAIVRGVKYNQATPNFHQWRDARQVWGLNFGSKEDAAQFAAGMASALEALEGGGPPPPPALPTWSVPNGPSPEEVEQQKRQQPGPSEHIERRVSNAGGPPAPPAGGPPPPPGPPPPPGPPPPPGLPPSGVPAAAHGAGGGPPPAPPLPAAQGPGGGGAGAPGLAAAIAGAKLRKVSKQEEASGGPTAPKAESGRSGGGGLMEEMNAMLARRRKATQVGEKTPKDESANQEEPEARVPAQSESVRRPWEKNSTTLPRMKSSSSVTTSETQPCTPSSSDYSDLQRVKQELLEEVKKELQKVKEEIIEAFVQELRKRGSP
UniProt O15105: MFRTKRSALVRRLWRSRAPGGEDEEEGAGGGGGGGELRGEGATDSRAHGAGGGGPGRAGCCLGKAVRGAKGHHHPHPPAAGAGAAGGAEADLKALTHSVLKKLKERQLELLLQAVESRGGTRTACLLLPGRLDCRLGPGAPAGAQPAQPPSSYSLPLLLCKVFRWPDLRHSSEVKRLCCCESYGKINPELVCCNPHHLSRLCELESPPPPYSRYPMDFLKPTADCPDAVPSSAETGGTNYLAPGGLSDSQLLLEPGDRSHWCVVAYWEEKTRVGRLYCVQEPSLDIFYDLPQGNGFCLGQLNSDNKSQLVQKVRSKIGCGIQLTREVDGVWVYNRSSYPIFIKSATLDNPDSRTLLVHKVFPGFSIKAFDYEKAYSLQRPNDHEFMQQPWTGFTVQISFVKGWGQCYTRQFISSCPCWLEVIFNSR

How the values were obtained:
[1] = molecular target: VASP (human (endogenous in PANC-1 and AsPC-1)) (UniProt P50552); assay: co-IP; PANC-1 and AsPC-1 cells; antibodies and direction not told; for VASP-SMAD7 also after knock-down or overexpression of EMP1
EMP1 = molecular target: T1, EMP1 (UniProt P54849); assay: as above
T1 sequence: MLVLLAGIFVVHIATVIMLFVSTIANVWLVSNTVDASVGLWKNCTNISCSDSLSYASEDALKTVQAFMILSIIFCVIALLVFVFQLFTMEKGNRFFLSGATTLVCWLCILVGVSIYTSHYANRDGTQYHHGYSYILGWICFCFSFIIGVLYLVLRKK

Substance | binding [1] | binding (EMP1)
SMAD7 (from UniProt O15105 1-426) | binds | 
VASP (from UniProt P50552 1-380) |  | binds
